# Hit rate of the full screen: of about 2,400 compounds, about 20 (0.8%) were called active.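 Rule for the calls: active = AC50 no more than ten times the highest tested concentration, or full inhibition at every dose giving a flat fit (cut at about 30 µM in these data); inconclusive = flat fit with activity between 30% and 70%, or poor-quality invalid fit; inactive = AC50 more than ten times the top tested dose.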 This is one part of the list.
# Test: inhibitors of ADP-Glo detection reagents, dose response, artefact control for GSK-3a inhibitor project, biochemical, luminescence, cell-free, homogeneous (AID 463205);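 note: kinase-free counter-screen against the ADP-Glo detection reagents only; potency is for inhibitors that reduce the luminescence signal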
# Conditions: 5 uM ADP
row,SMILES,AC50
1,Cc1n[nH]c(=S)n1/N=C/c1ccc(-c2ccccc2[N+](=O)[O-])o1,inactive: > 30 µM
2,COc1ccc(OCC(=O)NCCCn2ccnc2)cc1,inactive: > 30 µM
3,CN(C)CCCNc1ccc(S(N)(=O)=O)cc1[N+](=O)[O-],inactive: > 30 µM
4,O=c1c(OC2OC(CO)C(O)C(O)C2O)c(-c2ccc(O)c(O)c2)oc2cc(O)cc(O)c12 (configuration not stated),inactive: > 30 µM
5,CCc1nnc(NC(=O)CCN2C(=O)c3ccccc3C2=O)s1,inactive: > 30 µM
6,CC(=O)Nc1ccc(NC(=O)c2cc(-n3cnnc3)ccc2Cl)cc1,inactive: > 30 µM
7,C[C@H](NC(=O)c1nc[nH]c1C(=O)NC1CCN(C(=O)OC(C)(C)C)CC1)C(=O)OC(C)(C)C,inactive: > 30 µM
8,Cn1c2ccc(F)cc2c2nc3ccccc3nc21,inactive: > 30 µM
9,CCN1CCN(c2c(Cl)cccc2NC(=O)c2cccs2)CC1,inactive: > 30 µM
10,CC1(C)CC(=O)C(C2c3ccccc3S(=O)(=O)c3ccccc32)C(=O)C1,inactive: > 30 µM
11,COc1cc(C2C(C#N)=C(N)Oc3n[nH]c(-c4cccs4)c32)cc(OC)c1O (configuration not stated),inactive: > 30 µM
12,Cc1ccc(-c2nnc(N3CCN(C(=O)COc4cccc(C)c4)CC3)c3ccccc23)cc1,inactive: > 30 µM
13,CCSc1nc(N)c(C#N)c(-c2ccco2)c1C#N,inactive: > 30 µM
14,CCC1(CC)NC(=O)N(CC(=O)Nc2sc3c(c2C(N)=O)CCC3)C1=O,inactive: > 30 µM
15,O=C(Nc1ccsc1C(=O)NC1CCCCC1)c1ccccc1,inactive: > 30 µM
16,CN(CCO)c1ncnc2c1sc1nc(N3CCOCC3)c3c(c12)CCC3,inactive: > 30 µM
17,CSc1ccc(CN2CCN(Cc3ccc([N+](=O)[O-])cc3)CC2)cc1,inactive: > 30 µM
18,COc1ccc(-c2cn3cccnc3n2)cc1NC(=O)C1CCCC1,inactive: > 30 µM
19,CNS(=O)(=O)c1cccc(C(=O)OCC(=O)Nc2ccc(Cl)cn2)c1,inactive: > 30 µM
20,O=C(O)c1ccc(N=Cc2c(O)ccc3oc4c(c23)CCCC4)cc1,inactive: > 30 µM
21,COc1cc(CN2CCN(Cc3ccc([N+](=O)[O-])cc3)CC2)c([N+](=O)[O-])cc1OC,inactive: > 30 µM
22,O=c1c2ccccc2nnn1CSc1nnc(-c2ccc3c(c2)OCO3)o1,inactive: > 30 µM
23,CCC(CC)c1nnc(NC(=O)CCN2C(=O)c3ccccc3C2=O)s1,inactive: > 30 µM

# Reprinted at random: three compounds from above, in no set order.
row,SMILES,AC50
22,O=c1c2ccccc2nnn1CSc1nnc(-c2ccc3c(c2)OCO3)o1,inactive: > 30 µM
3,CN(C)CCCNc1ccc(S(N)(=O)=O)cc1[N+](=O)[O-],inactive: > 30 µM
7,C[C@H](NC(=O)c1nc[nH]c1C(=O)NC1CCN(C(=O)OC(C)(C)C)CC1)C(=O)OC(C)(C)C,inactive: > 30 µM

# (next part)

row,SMILES,AC50
1,COc1ccc(S(=O)(=O)Nc2ccc(S(=O)(=O)Nc3nc(C)cc(C)n3)cc2)cc1OC,inactive: > 30 µM
2,Cc1ccc(NC(=O)C2CCN(c3ncnc4sc(C)c(C)c34)CC2)cc1S(=O)(=O)N(C)C,inactive: > 30 µM
3,CCCCc1ccc(NC(=O)N[C@@H](C)C(=O)O)cc1,inactive: > 30 µM
4,CN(C)/N=C/c1cn(-c2ccccc2)nc1-c1cccnc1,inactive: > 30 µM
5,CCOc1ccc(/C=C/C2=Cc3c(sc(NC(=O)CSc4n[nH]c(N)n4)c3C#N)C(C)(C)C2)cc1,inactive: > 30 µM
6,Cc1ccc2nc(-c3ccncc3)[nH]c2c1,inactive: > 30 µM
7,CCCNC(=O)Cn1c(-c2ccc(F)cc2)cc(C(=O)OCC)c1C,inactive: > 30 µM
8,CCCCCCCCCCOC(=O)Cn1c(COc2ccc(OC)cc2)[n+](C)c2ccccc21,inactive: > 30 µM
9,CCSc1cc(N2CCCC2)nc(-c2ccccc2)n1,inactive: > 30 µM
10,S=C(Nc1ccc(Nc2ccccc2)cc1)Nc1ccccn1,inactive: > 30 µM
11,CCCCCCCOC(=O)C1=C(C)Nc2ncnn2C1c1cccs1 (configuration not stated),inactive: > 30 µM
12,O=C(Cn1ccc(C(F)(F)F)n1)N=Nc1c(O)[nH]c2ccc(Br)cc12,inactive: > 30 µM
13,O=[N+]([O-])c1ccccc1-c1cc(-c2ccccc2O)n[nH]1,inactive: > 30 µM
14,COc1ccc2nc(SCc3nc(N)nc(Nc4ccccc4)n3)[nH]c2c1,inactive: > 30 µM
15,O=S(=O)(O)c1cccc(N=Nc2c(O)ccc3ccccc23)c1,inactive: > 30 µM
16,Cc1c(C(=O)NCCc2ccccc2)oc2ccccc12,inactive: > 30 µM
17,CC(=O)c1cccc(NC(=O)c2cc(-n3cnnc3)ccc2Cl)c1,inactive: > 30 µM
18,COc1cc(C(=O)Oc2cc(C)cc(C)c2)cc(OC)c1OC,inactive: > 30 µM
19,COc1ccc(/C=C2\Oc3cc(OCC(=O)N4CCC[C@H]4C(=O)O)ccc3C2=O)c(OC)c1,inactive: > 30 µM
20,O=C(Nc1ccccc1)c1ccc(CSc2ncccn2)cc1,inactive: > 30 µM
21,Cc1sc(NC(=S)NC(=O)C(C)(C)C)c(C(N)=O)c1C,inactive: > 30 µM
22,COc1ccccc1Nc1nc2c(s1)CCC2,inactive: > 30 µM
23,Clc1ccc(OCc2nnc(SCc3nnc(-c4ccccc4)o3)o2)c(Cl)c1,inactive: > 30 µM

row,SMILES,AC50
1,Cc1ccc(C)c(N2CC(C(=O)Nc3nccs3)CC2=O)c1 (configuration not stated),inactive: > 30 µM
2,S=C(Nc1ccccc1)Nc1ccc2cn[nH]c2c1,inactive: > 30 µM
3,Cc1ccnc2ccc(SC(F)(F)F)cc12,inactive: > 30 µM
4,CC(=O)N1CCN(c2ccccc2NC(=O)c2ccc(-c3cccc([N+](=O)[O-])c3)o2)CC1,inactive: > 30 µM
5,CC(=O)N=Nc1[nH]c(N)c2ccccc12,inactive: > 30 µM
6,CCCCOC(=O)CNc1n[nH]c(=S)[nH]c1=O,inactive: > 30 µM
7,Nc1ncnc2c1ncn2[C@@H]1O[C@H](COS(=O)(=O)O)[C@@H](O)[C@H]1O,inactive: > 30 µM
8,CC1=C(C(=O)OC(C)C)C(c2cccs2)n2ncnc2N1 (configuration not stated),inactive: > 30 µM
9,Cc1ccc(C(=O)N2NC(c3ccc(F)cc3)C3C(=O)N(c4ccc(C)c(C)c4)C(=O)C32)cc1 (configuration not stated),inactive: > 30 µM
10,COc1cc2c(ccc3cc(OC)c(OC)c(O)c32)cc1O,inactive: > 30 µM
11,N#Cc1cc(-c2cccc(Cl)c2)c[nH]c1=O,inactive: > 30 µM
12,CN(C)Cc1c(C(=O)N/N=C/c2cccnc2)nnn1-c1nonc1N,inactive: > 30 µM
13,O=C(O)c1ccc(Nc2nc(-c3ccccc3)nc3ccccc23)cc1,inactive: > 30 µM
14,COC(=O)CCCCCCCCC(O)CN(C)C (configuration not stated),inactive: > 30 µM
15,c1ccc2c(c1)c1ccccc1n1c(-c3ccc4c(c3)OCO4)nnc21,inactive: > 30 µM
16,COc1ccc(Br)cc1C(=O)Nc1ccc(NC(=O)c2ccco2)cc1,inactive: > 30 µM
17,O=C(c1ccc2c3n(nc2c1)-c1ccccc1CO3)N1CCOCC1,active: 22.5 µM
18,COc1ccc(S(=O)(=O)Nc2c(C(=O)O)[nH]c3ccc(OC)cc23)cc1,inactive: > 30 µM
19,Cc1ccc(NC(=O)c2cc(-n3cnnc3)ccc2Cl)c(C)c1,inactive: > 30 µM
20,COc1ccc(O)c(-c2nc(N)nc(N)n2)c1,inactive: > 30 µM
21,Cc1cc(C(C#N)c2ccccc2)n2ncnc2n1 (configuration not stated),inactive: > 30 µM
